In the assay the target is Hfq (Escherichia coli, UniProt P0A6X3 1-102). Description: native gel or EMSA; 5'-32P-labelled tRNA without CCA end incubated with Hfq and CCA-adding enzyme for 1 and 10 min; 30 mM HEPES/KOH pH 7.6, 30 mM KCl, 6 mM MgCl2, 2 mM DTT, 30°C; native 6% polyacrylamide gel, autoradiography (only the labelled tRNA is seen); both purified.

Chains of the proteins cited; added tags and fusions are not shown.
UniProt P0A6X3: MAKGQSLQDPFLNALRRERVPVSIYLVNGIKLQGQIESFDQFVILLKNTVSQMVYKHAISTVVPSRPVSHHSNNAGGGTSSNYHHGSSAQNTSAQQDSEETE

No constants are given. Whether binding was seen depends on the method and setting.

B1: E. coli CCA-adding enzyme (enzyme, UniProt P06961 1-412)
chain: MKIYLVGGAVRDALLGLPVKDRDWVVVGSTPQEMLDAGYQQVGRDFPVFLHPQTHEEYALARTERKSGSGYTGFTCYAAPDVTLEDDLKRRDLTINALAQDDNGEIIDPYNGLGDLQNRLLRHVSPAFGEDPLRVLRVARFAARYAHLGFRIADETLALMREMTHAGELEHLTPERVWKETESALTTRNPQVFFQVLRDCGALRVLFPEIDALFGVPAPAKWHPEIDTGIHTLMTLSMAAMLSPQVDVRFATLCHDLGKGLTPPELWPRHHGHGPAGVKLVEQLCQRLRVPNEIRDLARLVAEFHDLIHTFPMLNPKTIVKLFDSIDAWRKPQRVEQLALTSEADVRGRTGFESADYPQGRWLREAWEVAQSVPTKAVVEAGFKGVEIREELTRRRIAAVASWKEQRCPKPE
As for B1, the binding entry was “no binding (tested: 7.5 pmol Hfq and 5 pmol tRNA)”.
